Experiment: general procedure: Fmoc solid-phase peptide synthesis
Details: whole synthesis

In the case of Z-D-Tyr-D-Glu-D-Arg-D-Phe-NH2, the isolated yield is reported as “around 60%” and the “final HPLC purity” value (LC-MS and NMR) is reported as “more than 95% pure (HPLC)”.

Source: patent publication US8993717B2 (Imperial Innovations Limited, priority 2009, dated 2015)
